# The other results are listed elsewhere or left out.
# B1: PX14343I-pdi-501-30-501 (Parabacteroides distasonis) (protein)
# chain: SDQYSTETFWKTKEHASAGIMGCYNALKLWRSLHTMEFDMLTANAMPYNEANGTQAIGKGEHLSTTALIGSLWKNCYVGIGRTNTFIANVGGVDMDESEKAKMVGEAKFLRAFYYLSLVDKFGGVPLIIDAPNADEQAELPRNSKEEVVNQIVKDLEEAAAVLPDTYASSDLGRATKGAALALKARTLLYNSRWAEAAQAAKQVMESGVYQLFNDYRHFFSEDNKYNCEVIFDIEAKLPEYPTDYDQNIWRLNRPAPLKELVDTYLCVDGKTIEESPLYDPTRPYENRDPRLLKSIVCIGYPYLGKTITKEDVATTGFGVKKYTSYEDDVTIPLVERSAFNFILIRYAEVLLTYAEAQNEASGPDQSVYDAINQLRRRPDINMPEVPKGLTKDQMREVIRRERRIELTFEGLYYSDILRWKTAEKENNGMMHNYEGIEVVKRSFNPKRDYLWPIPYNQTVLNPNLEQNPNWD
# Experiments:
# Experiment in all cases: glycan array binding signal (z-score within array); higher = stronger binding
# Conditions in all cases: glycan notation: IUPAC condensed, linker removed
# [1] = target: Gal(b1-4)GlcNAc(b1-3)Gal(b1-4)GlcNAc(b1-2)[Gal(b1-4)GlcNAc(b1-3)Gal(b1-4)GlcNAc(b1-6)]Man(a1-6)[Gal(b1-4)GlcNAc(b1-3)Gal(b1-4)GlcNAc(b1-2)Man(a1-3)]Man(b1-4)GlcNAc(b1-4)GlcNAc
# How it was run: (§1)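 The binding signal is a Z-score computed within each array. Data were drawn from 3228 arrays in the Consortium for Functional Glycomics database, restricted to those with a known protein sequence. Scores were averaged over arrays of the same protein sequence at different concentrations or buffers, and over linkers, and negative values can be taken as non-binding.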
# [2] = target: Gal(b1-4)GlcNAc(b1-3)Gal(b1-4)GlcNAc(b1-2)[Gal(b1-4)GlcNAc(b1-3)Gal(b1-4)GlcNAc(b1-6)]Man(a1-6)[Gal(b1-4)GlcNAc(b1-3)Gal(b1-4)GlcNAc(b1-2)Man(a1-3)]Man(b1-4)GlcNAc(b1-4)[Fuc(a1-6)]GlcNAc
# How it was run: as §1
# [3] = target: Gal(b1-4)GlcNAc(b1-3)Gal(b1-4)GlcNAc(b1-3)Gal(b1-4)GlcNAc
# How it was run: as §1
# [4] = target: Gal(b1-4)GlcNAc(b1-3)Gal(b1-4)GlcNAc(b1-3)Gal(b1-4)GlcNAc(b1-2)Man(a1-3)[Gal(b1-4)GlcNAc(b1-3)Gal(b1-4)GlcNAc(b1-3)Gal(b1-4)GlcNAc(b1-2)Man(a1-6)]Man(b1-4)GlcNAc(b1-4)GlcNAc
# How it was run: as §1
# [5] = target: Gal(b1-4)GlcNAc(b1-3)Gal(b1-4)GlcNAc(b1-3)Gal(b1-4)GlcNAc(b1-2)Man(a1-3)[Gal(b1-4)GlcNAc(b1-3)Gal(b1-4)GlcNAc(b1-3)Gal(b1-4)GlcNAc(b1-2)Man(a1-6)]Man(b1-4)GlcNAc(b1-4)[Fuc(a1-6)]GlcNAc
# How it was run: as §1
# [6] = target: Gal(b1-4)GlcNAc(b1-3)Gal(b1-4)GlcNAc(b1-3)Gal(b1-4)GlcNAc(b1-2)[Gal(b1-4)GlcNAc(b1-3)Gal(b1-4)GlcNAc(b1-3)Gal(b1-4)GlcNAc(b1-6)]Man(a1-6)[Gal(b1-4)GlcNAc(b1-3)Gal(b1-4)GlcNAc(b1-3)Gal(b1-4)GlcNAc(b1-2)Man(a1-3)]Man(b1-4)GlcNAc(b1-4)[Fuc(a1-6)]GlcNAc
# How it was run: as §1
# [7] = target: Gal(b1-4)GlcNAc(b1-3)Gal(b1-4)GlcNAc(b1-3)Gal(b1-4)GlcNAc(b1-3)Gal(b1-4)GlcNAc(b1-2)Man(a1-3)[Gal(b1-4)GlcNAc(b1-3)Gal(b1-4)GlcNAc(b1-3)Gal(b1-4)GlcNAc(b1-3)Gal(b1-4)GlcNAc(b1-2)Man(a1-6)]Man(b1-4)GlcNAc(b1-4)GlcNAc
# How it was run: as §1
# [8] = target: Gal(b1-4)GlcNAc(b1-3)Gal(b1-4)GlcNAc(b1-3)Gal(b1-4)GlcNAc(b1-3)Gal(b1-4)GlcNAc(b1-2)Man(a1-3)[Gal(b1-4)GlcNAc(b1-3)Gal(b1-4)GlcNAc(b1-3)Gal(b1-4)GlcNAc(b1-3)Gal(b1-4)GlcNAc(b1-2)Man(a1-6)]Man(b1-4)GlcNAc(b1-4)[Fuc(a1-6)]GlcNAc
# How it was run: as §1
# [9] = target: Gal(b1-4)GlcNAc(b1-3)Gal(b1-4)GlcNAc(b1-3)Gal(b1-4)GlcNAc(b1-3)Gal(b1-4)GlcNAc(b1-2)[Gal(b1-4)GlcNAc(b1-3)Gal(b1-4)GlcNAc(b1-3)Gal(b1-4)GlcNAc(b1-3)Gal(b1-4)GlcNAc(b1-6)]Man(a1-6)[Gal(b1-4)GlcNAc(b1-3)Gal(b1-4)GlcNAc(b1-3)Gal(b1-4)GlcNAc(b1-3)Gal(b1-4)GlcNAc(b1-2)Man(a1-3)]Man(b1-4)GlcNAc(b1-4)[Fuc(a1-6)]GlcNAc
# How it was run: as §1
# [10] = target: Gal(b1-4)GlcNAc(b1-3)Gal(b1-4)GlcNAc(b1-3)Gal(b1-4)GlcNAc(b1-3)Gal(b1-4)GlcNAc(b1-3)Gal(b1-4)GlcNAc(b1-2)Man(a1-3)[Gal(b1-4)GlcNAc(b1-3)Gal(b1-4)GlcNAc(b1-3)Gal(b1-4)GlcNAc(b1-3)Gal(b1-4)GlcNAc(b1-3)Gal(b1-4)GlcNAc(b1-2)Man(a1-6)]Man(b1-4)GlcNAc(b1-4)GlcNAc
# How it was run: as §1
# [11] = target: Gal(b1-4)GlcNAc(b1-3)Gal(b1-4)GlcNAc(b1-3)Gal(b1-4)GlcNAc(b1-3)Gal(b1-4)GlcNAc(b1-3)Gal(b1-4)GlcNAc(b1-2)Man(a1-3)[Gal(b1-4)GlcNAc(b1-3)Gal(b1-4)GlcNAc(b1-3)Gal(b1-4)GlcNAc(b1-3)Gal(b1-4)GlcNAc(b1-3)Gal(b1-4)GlcNAc(b1-2)Man(a1-6)]Man(b1-4)GlcNAc(b1-4)[Fuc(a1-6)]GlcNAc
# How it was run: as §1
# [12] = target: Gal(b1-4)GlcNAc(b1-3)Gal(b1-4)GlcNAc(b1-3)Gal(b1-4)GlcNAc(b1-3)Gal(b1-4)GlcNAc(b1-3)Gal(b1-4)GlcNAc(b1-2)[Gal(b1-4)GlcNAc(b1-3)Gal(b1-4)GlcNAc(b1-3)Gal(b1-4)GlcNAc(b1-3)Gal(b1-4)GlcNAc(b1-3)Gal(b1-4)GlcNAc(b1-6)]Man(a1-6)[Gal(b1-4)GlcNAc(b1-3)Gal(b1-4)GlcNAc(b1-3)Gal(b1-4)GlcNAc(b1-3)Gal(b1-4)GlcNAc(b1-3)Gal(b1-4)GlcNAc(b1-2)Man(a1-3)]Man(b1-4)GlcNAc(b1-4)[Fuc(a1-6)]GlcNAc
# How it was run: as §1
# [13] = target: Gal(b1-4)GlcNAc(b1-3)Gal(b1-4)GlcNAc(b1-3)Gal(b1-4)GlcNAc(b1-3)Gal(b1-4)GlcNAc(b1-3)Gal(b1-4)GlcNAc(b1-3)Gal(b1-4)GlcNAc(b1-2)Man(a1-3)[Gal(b1-4)GlcNAc(b1-3)Gal(b1-4)GlcNAc(b1-3)Gal(b1-4)GlcNAc(b1-3)Gal(b1-4)GlcNAc(b1-3)Gal(b1-4)GlcNAc(b1-3)Gal(b1-4)GlcNAc(b1-2)Man(a1-6)]Man(b1-4)GlcNAc(b1-4)GlcNAc
# How it was run: as §1
# [14] = target: Gal(b1-4)GlcNAc(b1-3)Gal(b1-4)GlcNAc(b1-3)GalNAc
# How it was run: as §1
# [15] = target: Gal(b1-4)GlcNAc(b1-3)Gal(b1-4)GlcNAc(b1-3)[Gal(b1-4)GlcNAc(b1-3)Gal(b1-4)GlcNAc(b1-6)]GalNAc
# How it was run: as §1
# [16] = target: Gal(b1-4)GlcNAc(b1-3)Gal(b1-4)GlcNAc(b1-6)[Gal(b1-3)]GalNAc
# How it was run: as §1
# [17] = target: Gal(b1-4)GlcNAc(b1-3)Gal(b1-4)[Fuc(a1-3)]GlcNAc(b1-3)Gal(b1-4)[Fuc(a1-3)]GlcNAc
# How it was run: as §1
# [18] = target: Gal(b1-4)GlcNAc(b1-3)GalNAc
# How it was run: as §1
# [19] = target: Gal(b1-4)GlcNAc(b1-3)[Fuc(a1-3)GlcNAc(b1-6)]Gal(b1-4)Glc
# How it was run: as §1
# [20] = target: Gal(b1-4)GlcNAc(b1-3)[Gal(b1-4)GlcNAc(b1-6)]Gal(b1-4)GlcNAc
# How it was run: as §1
# [21] = target: Gal(b1-4)GlcNAc(b1-3)[GlcNAc(b1-6)]Gal(b1-4)GlcNAc
# How it was run: as §1
# [22] = target: Gal(b1-4)GlcNAc(b1-6)Gal(b1-4)GlcNAc
# How it was run: as §1
# [23] = target: Gal(b1-4)GlcNAc(b1-6)GalNAc
# How it was run: as §1
# [24] = target: Gal(b1-4)GlcNAc(b1-6)[Gal(b1-3)]GalNAc
# How it was run: as §1
# [25] = target: Gal(b1-4)GlcNAc(b1-6)[Gal(b1-4)GlcNAc(b1-3)]GalNAc
# How it was run: as §1
# Gal(b1-4)GlcNAc6P = target: Gal(b1-4)GlcNAc6P
# How it was run: as §1
# Gal(b1-6)Gal = target: Gal(b1-6)Gal
# How it was run: as §1
# Gal3S(b1-3)GalNAc = target: Gal3S(b1-3)GalNAc
# How it was run: as §1
# Gal3S(b1-3)GlcNAc = target: Gal3S(b1-3)GlcNAc
# How it was run: as §1
# [26] = target: Gal3S(b1-3)[Fuc(a1-4)]GlcNAc
# How it was run: as §1
# Gal3S(b1-4)Glc = target: Gal3S(b1-4)Glc
# How it was run: as §1
# Gal3S(b1-4)Glc6S = target: Gal3S(b1-4)Glc6S
# How it was run: as §1
# Gal3S(b1-4)GlcNAc = target: Gal3S(b1-4)GlcNAc
# How it was run: as §1
# [27] = target: Gal3S(b1-4)[Fuc(a1-3)]Glc6S
# How it was run: as §1
# [28] = target: Gal3S(b1-4)[Fuc(a1-3)]GlcNAc
# How it was run: as §1
# [29] = target: Gal3S(b1-4)[Fuc(a1-3)]GlcNAc6S
# How it was run: as §1
# Gal3S4S(b1-4)GlcNAc = target: Gal3S4S(b1-4)GlcNAc
# How it was run: as §1
binder,measurement,setting,value
B1,glycan array binding signal (z-score),[1],0.284
same,glycan array binding signal (z-score),[2],0.03
same,glycan array binding signal (z-score),[3],-0.202
same,glycan array binding signal (z-score),[4],1.39
same,glycan array binding signal (z-score),[5],0.323
same,glycan array binding signal (z-score),[6],0.543
same,glycan array binding signal (z-score),[7],0.75
same,glycan array binding signal (z-score),[8],0.506
same,glycan array binding signal (z-score),[9],0.444
same,glycan array binding signal (z-score),[10],-0.336
same,glycan array binding signal (z-score),[11],0.385
same,glycan array binding signal (z-score),[12],1.86
same,glycan array binding signal (z-score),[13],0.503
same,glycan array binding signal (z-score),[14],-0.109
same,glycan array binding signal (z-score),[15],-0.056
same,glycan array binding signal (z-score),[16],0.193
same,glycan array binding signal (z-score),[17],-0.267
same,glycan array binding signal (z-score),[18],-0.251
same,glycan array binding signal (z-score),[19],-0.132
same,glycan array binding signal (z-score),[20],-0.2
same,glycan array binding signal (z-score),[21],-0.011
same,glycan array binding signal (z-score),[22],-0.299
same,glycan array binding signal (z-score),[23],-0.209
same,glycan array binding signal (z-score),[24],-0.181
same,glycan array binding signal (z-score),[25],0.582
same,glycan array binding signal (z-score),Gal(b1-4)GlcNAc6P,0.039
same,glycan array binding signal (z-score),Gal(b1-6)Gal,1.39
same,glycan array binding signal (z-score),Gal3S(b1-3)GalNAc,0.039
same,glycan array binding signal (z-score),Gal3S(b1-3)GlcNAc,-0.097
same,glycan array binding signal (z-score),[26],-0.195
same,glycan array binding signal (z-score),Gal3S(b1-4)Glc,0.301
same,glycan array binding signal (z-score),Gal3S(b1-4)Glc6S,-0.187
same,glycan array binding signal (z-score),Gal3S(b1-4)GlcNAc,-0.259
same,glycan array binding signal (z-score),[27],0.785
same,glycan array binding signal (z-score),[28],0.833
same,glycan array binding signal (z-score),[29],1.18
same,glycan array binding signal (z-score),Gal3S4S(b1-4)GlcNAc,0.784

# Two consecutive entries from above, quoted:
binder,measurement,setting,value
B1,glycan array binding signal (z-score),[21],-0.011
same,glycan array binding signal (z-score),[22],-0.299

# Source: the supplement of paper PMC8728848
